Measurements published in paper PMC9726926.
No constants are given. Whether binding was seen depends on the method and setting. Binding seen in cells or lysates may run through a third protein. Some results given as binding are weak or reduced against the parent protein; the word gives no strength.

Chains of the proteins cited; added tags and fusions are not shown. Lines headed by an entry give the natural chain unless they say otherwise; changes in a name come on top.
UniProt Q96GD4: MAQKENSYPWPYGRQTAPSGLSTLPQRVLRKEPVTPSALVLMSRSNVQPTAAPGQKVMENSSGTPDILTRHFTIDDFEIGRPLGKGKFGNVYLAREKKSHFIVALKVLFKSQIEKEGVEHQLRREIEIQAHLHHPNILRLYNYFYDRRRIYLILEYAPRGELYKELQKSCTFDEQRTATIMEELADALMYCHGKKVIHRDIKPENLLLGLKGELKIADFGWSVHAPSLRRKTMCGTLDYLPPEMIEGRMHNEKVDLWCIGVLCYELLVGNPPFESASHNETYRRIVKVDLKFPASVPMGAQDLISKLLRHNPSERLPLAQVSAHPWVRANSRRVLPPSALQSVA
UniProt P46736: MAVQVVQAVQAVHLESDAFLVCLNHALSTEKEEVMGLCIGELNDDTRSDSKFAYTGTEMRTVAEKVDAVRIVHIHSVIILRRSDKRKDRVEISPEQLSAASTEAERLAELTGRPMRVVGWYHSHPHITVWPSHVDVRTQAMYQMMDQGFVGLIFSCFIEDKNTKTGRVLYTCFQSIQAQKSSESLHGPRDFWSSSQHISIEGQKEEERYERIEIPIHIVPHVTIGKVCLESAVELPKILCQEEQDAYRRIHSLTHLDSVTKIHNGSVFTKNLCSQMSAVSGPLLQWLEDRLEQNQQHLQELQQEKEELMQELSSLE
UniProt Q9NQS7: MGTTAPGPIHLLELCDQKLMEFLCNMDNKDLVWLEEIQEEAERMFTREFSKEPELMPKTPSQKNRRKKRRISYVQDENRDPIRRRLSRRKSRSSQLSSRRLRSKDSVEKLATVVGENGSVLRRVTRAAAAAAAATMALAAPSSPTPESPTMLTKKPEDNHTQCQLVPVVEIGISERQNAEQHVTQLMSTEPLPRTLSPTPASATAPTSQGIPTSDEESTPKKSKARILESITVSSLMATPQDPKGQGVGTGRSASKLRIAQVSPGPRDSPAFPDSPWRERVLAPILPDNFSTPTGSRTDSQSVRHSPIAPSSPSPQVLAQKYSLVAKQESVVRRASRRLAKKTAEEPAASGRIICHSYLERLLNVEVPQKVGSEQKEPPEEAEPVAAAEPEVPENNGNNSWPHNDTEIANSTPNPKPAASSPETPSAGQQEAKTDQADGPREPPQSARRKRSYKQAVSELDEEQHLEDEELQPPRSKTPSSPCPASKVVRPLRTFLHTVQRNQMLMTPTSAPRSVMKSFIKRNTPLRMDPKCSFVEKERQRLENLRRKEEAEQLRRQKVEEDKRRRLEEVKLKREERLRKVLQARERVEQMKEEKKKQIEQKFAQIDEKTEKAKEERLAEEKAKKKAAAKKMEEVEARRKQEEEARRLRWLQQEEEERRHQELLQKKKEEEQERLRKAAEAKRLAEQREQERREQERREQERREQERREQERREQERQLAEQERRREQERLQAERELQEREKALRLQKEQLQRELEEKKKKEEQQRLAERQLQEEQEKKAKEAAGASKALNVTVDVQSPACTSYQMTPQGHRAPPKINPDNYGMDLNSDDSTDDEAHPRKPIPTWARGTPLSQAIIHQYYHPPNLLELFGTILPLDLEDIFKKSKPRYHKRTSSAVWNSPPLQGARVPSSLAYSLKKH
UniProt O15392: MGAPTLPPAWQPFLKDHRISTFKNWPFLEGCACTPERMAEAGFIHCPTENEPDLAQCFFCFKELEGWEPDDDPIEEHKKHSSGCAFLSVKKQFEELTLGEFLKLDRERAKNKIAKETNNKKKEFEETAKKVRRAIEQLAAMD

Columns and labels:
Flag-HA-Aurora B (human) [1] = target: Flag-HA-Aurora B (human) (UniProt Q96GD4); assay: co-IP; Flag-IP (anti-Flag-M2 agarose, 4 °C, 4-6 h) from mitotic HEK293T cells transfected with the indicated plasmids (nocodazole 30 ng/mL, 16 h); 150 mM NaCl; immunoblot
[2] = target: Flag-Aurora B K56R (human) (UniProt Q96GD4); assay: as above
[3] = target: Flag-Aurora B K85R/K87R (human) (UniProt Q96GD4); assay: as above
GST-Aurora B (human) = GST-Aurora B (human) (UniProt Q96GD4); assay: pull-down; GST-Aurora B immobilised on glutathione sepharose, incubated with mitotic HeLa cell extracts at 4 °C for 4 h; immunoblot; only the target purified
Flag-HA-Aurora B (human) [4] = target: Flag-HA-Aurora B (human) (UniProt Q96GD4); assay: co-IP; Flag-Aurora B immunoprecipitates blotted for ectopic EGFP-Abro1 or EYFP-BRCC36 (Supplementary Fig. 1b, c); cell line not told in the text shown
Flag-BRCC36 = Flag-BRCC36 (UniProt P46736); assay: co-IP; Flag-IP (anti-Flag-M2 agarose, 4 °C, 4-6 h) from mitotic HeLa cells transfected with FH-Abro1 or Flag-BRCC36; lysis in NETN 400, diluted to 150 mM NaCl; immunoblot of endogenous partners

Substance	binding (Flag-HA-Aurora B (human) [1])	binding [2]	binding [3]	also measured
INCENP (from UniProt Q9NQS7 1-918)	binds	binds	binds	–
BRCC36 (endogenous, HeLa) (from UniProt P46736 1-316)	–	–	–	binding (GST-Aurora B (human)): binds
EYFP-BRCC36 (from UniProt P46736 1-316)	–	–	–	binding (Flag-HA-Aurora B (human) [4]): binds
Aurora B (endogenous, HeLa) (from UniProt Q96GD4 1-344)	–	–	–	binding (Flag-BRCC36): binds
Survivin (from UniProt O15392 1-142)	binds	binds	binds	–
